# Experimental data: patent publication US20250091911A1, “NANOFILTRATION SYSTEM AND METHOD INCLUDING PRETREATMENT WITH GREEN SORPTION MEDIA” (University of Central Florida Research Foundation, Inc., priority 2023, published 2025)
# Assays:
# [1] = Fixed-bed column pretreatment of spiked C-23 canal water with CPS
# Procedure: (§1) The water samples were collected from the same site of the C-23 canal during both the dry and wet seasons. However, only wet season water samples were used in the experiment. The water samples were analyzed for both long-chain (PFOA and PFOS) and short-chain (Perfluorobutanoic acid [PFBA] and Perfluorobutanesulfonic acid [PFBS]) PFAS following the modified EPA 537.1 method (Shoemaker & Tettenhorst, 2020). Through this method, an aliquot of a 250 mL water sample containing analytes and internal standards is extracted via solid phase extraction. The extracted analytes and internal standards are then eluted with methanol and ammonium hydroxide in methanol solvent. Then the eluted samples are dried with nitrogen and reconstituted to 1 mL volume with a buffer solution. The samples are then injected into a C18 liquid chromatography column, and the PFAS compounds are separated by a gradient of pure methanol and 20 mM ammonium acetate. Finally, the eluted compounds are detected, and their concentrations are measured via tandem mass spectrometry. The method detection limits (MDLs) for PFBA, PFBS, PFOA, and PFOS were 0.5 ng·L^−1, 2 ng·L^−1, 0.5 ng·L^−1, and 1 ng·L^−1, respectively. The concentration of calcium ion (Ca^2+) was analyzed at Eurofins Flowers's Chemical Laboratories (Altamonte Springs, Florida) following EPA method 6010D using inductively coupled plasma optical emission spectroscopy (MDL=0.096 mg·L^−1). Total organic carbon (TOC) and dissolved organic carbon (DOC) were measured using a TOC analyzer following EPA method 415.3.
# (§2) Water samples collected from the C-23 canal were first fortified with PFOS and PFOA and then used as influents to the pretreatment column containing one of the two green sorption media. Note the water samples were not fortified with PFBA and PFBS. The green sorption media effluent served as the feedwater for the nanofiltration unit of the proposed water treatment system. The nanofiltration membrane unit without any green sorption media-based pretreatment served as the “control.” The integration of a green sorption media (CPS or ZIPGEM) with crossflow nanofiltration is herein referred to as a water treatment system, denoted as CPS-nanofiltration or ZIPGEM-nanofiltration. The CPS and ZIPGEM column influents and effluents and nanofiltration permeates were analyzed for both long-chain (PFOS and PFOA) and short-chain (PFBS and PFBA) PFAS. FIG. 3 presents the green sorption media-nanofiltration hybrid treatment scheme.
# C-23 canal water was stored in a walk-in refrigerator at […] after collection. For the pretreatment experiment, a total of 60 L of water was used as influents to the CPS and ZIPGEM columns. Although the raw water was spiked with 70 ng·L^−1 of PFOA and PFOS each, the short-chain PFAS (PFBA, PFBS) were at their indigenous concentrations. A peristaltic pump was used to deliver the water to the columns at a constant flowrate of 14 ml·min^−1. Three columns (triplicate) with 3 ft length and 4-inch diameter containing 2,600 ml of media were set up for each media, and all samples were analyzed in triplicate (FIG. 4). The fixed-bed column experiments were run for more than 48 h, and effluents were taken at different time intervals to be used as feedwaters for the nanofiltration treatment that followed. […] At least 5 L of column effluent were collected to be used as the nanofiltration feed, and the stated effluent at 9 h for CPS was collected from 0 h until 9 h, whereas effluent at 30 h for ZIPGEM was collected from 9 h until 30 h. The collected effluents from the column study were stored in a refrigerator until they were used for the nanofiltration experiment. FIG. 4 illustrates the experimental setup for the pretreatment CPS and ZIPGEM process.
# The average removal efficiencies of each media pretreatment were calculated based on PFAS concentrations in the influents and effluents of triplicate columns, as disclosed in TABLE 5. […]
# [2] = Control: nanofiltration without green sorption media pretreatment
# Procedure: as §1, §2
# A bench-scale crossflow filtration setup was used in these experimental methods. The experimental setup consisted of a feed tank, a centrifugal pump, three CF042 membrane cells connected to pressure gauges, check valves, and flowmeters. A recirculating chiller was used for regulating the temperature at 20° C. […]
SMILES,"PFAS concentration, column effluent (Effl.) ([1]; CPS Col 1, effluent @ 9 h)","PFAS concentration, column effluent (Effl.) ([1]; CPS Col 2, effluent @ 9 h)","PFAS concentration, column effluent (Effl.) ([1]; CPS Col 3, effluent @ 9 h)","PFAS concentration, Control Effl. [2]"
"O=C(O)C(F)(F)C(F)(F)C(F)(F)F [PFBA, Perfluorobutanoic acid]",6.0 ng/L,5.8 ng/L,5.4 ng/L,2.50 ng/L
"O=S(=O)(O)C(F)(F)C(F)(F)C(F)(F)C(F)(F)F [PFBS, Perfluorobutanesulfonic acid]",4.4 ng/L,4.0 ng/L,4.1 ng/L,3.90 ng/L
"O=C(O)C(F)(F)C(F)(F)C(F)(F)C(F)(F)C(F)(F)C(F)(F)C(F)(F)F [PFOA, Perfluorooctanoic acid]",3.8 ng/L,14 ng/L,11 ng/L,12.67 ng/L
"O=S(=O)(O)C(F)(F)C(F)(F)C(F)(F)C(F)(F)C(F)(F)C(F)(F)C(F)(F)C(F)(F)F [PFOS, Perfluorooctanesulfonic acid]",0.0 ng/L,0.0 ng/L,0.0 ng/L,11.07 ng/L
